# PubChem BioAssay AID652272, Drosophila RNAi Screening Center, 2013
# Purpose: 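Genome-wide knock-down search for components of Hedgehog signalling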 (primary screen)
# System: Drosophila clone 8 (Cl8) cells
# Knock-down reagent: long dsRNA against Drosophila genes
# Read-out: 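Plate reader light from a firefly reporter under a ptc promoter fragment that responds to Hedgehog, with Renilla light as transfection reference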
# Scale: firefly Hh reporter signal: higher = more ptc reporter light; Renilla reference signal: higher = more Renilla control light
# Call rule: 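Called a hit if the two-replicate mean z-score lies below -2 or above +3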
# Calls: active = hit: reporter lowered or raised; inactive = not a hit
# The screen tested about 21,000 reagents; below is an unselected part of those with a known target gene and a result. Of all reagents, 503 (2.4%) were called active. 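Raw plate light values, not normalised; calls rest on replicate z-scores that were not deposited; hits include reporter decreases as well as increases.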 Not stated in the record: the amount of reagent, the time to read-out.
gene,amplicon,"firefly Hh reporter signal, replicate 1","firefly Hh reporter signal, replicate 2","firefly Hh reporter signal, replicate 3","Renilla reference signal, replicate 1","Renilla reference signal, replicate 2",Call
CG40583 (retired record),DRSC20938,5.86e5,1.59e5,,31976,4132,inactive
Mcm7,DRSC11219,57313,51158,,2513,2048,inactive
CG30203,DRSC06690,73073,47024,,1905,3558,inactive
CG5196,DRSC15735,94528,1.32e5,,3010,3268,inactive
CG34355,DRSC13639,49139,8.01e5,3.20e5,12390,5776,inactive
CG34355,DRSC14520,5.18e5,1.01e5,,26971,3297,inactive
CG34355,DRSC14668,6.21e5,1.34e5,,32448,4048,inactive
CtsF,DRSC12056,1.60e5,,,3841,,inactive
CtsF,DRSC12195,1.19e5,1.11e5,,5053,4315,inactive
CtsF,DRSC12196,71979,1.10e5,,3077,3157,inactive
CG17528,DRSC07761,74810,41496,,1952,2816,inactive
CG1416,DRSC03706,88619,82688,,3610,2908,inactive
Adk1,DRSC15514,56979,78968,,1992,2109,inactive
CG9733,DRSC16549,79146,90208,,2108,3373,inactive
Nct,DRSC16172,1.22e5,55581,,4864,2512,inactive

Continued (3 carried over from the part before).
gene,amplicon,"firefly Hh reporter signal, replicate 1","firefly Hh reporter signal, replicate 2","firefly Hh reporter signal, replicate 3","Renilla reference signal, replicate 1","Renilla reference signal, replicate 2",Call
Adk1,DRSC15514,56979,78968,,1992,2109,inactive
CG9733,DRSC16549,79146,90208,,2108,3373,inactive
Nct,DRSC16172,1.22e5,55581,,4864,2512,inactive
CG12071,DRSC14471,40992,35996,,1341,1899,inactive
mRpL48,DRSC00506,1.61e5,1.26e5,,3723,3466,inactive
CG14683,DRSC17035,1.11e5,80563,,4516,2741,inactive
CG18508,DRSC18155,99127,1.87e5,,3845,7625,inactive
CG5639,DRSC15851,69387,96467,,2113,1943,inactive
Jon25Bii,DRSC03114,1.48e5,47257,,3754,5284,inactive
CG9377,DRSC03217,65109,46372,,2745,2162,inactive
CG10650,DRSC02085,64344,97040,,2823,4065,inactive
CG8032,DRSC16365,44988,93688,,1797,2587,inactive
Usp10,DRSC08282,1.17e5,1.31e5,,4938,4471,inactive
Usp10,DRSC08373,58394,42704,,1760,3171,inactive
CG9928,DRSC03274,1.05e5,37609,,2621,3410,inactive
caz,DRSC20317,1.36e5,7.81e5,1.28e5,2813,4427,inactive
Ssl,DRSC04657,83469,48088,,2144,4582,inactive
CG13231,DRSC06351,1.13e5,83056,,1600,6203,inactive
CG42272,DRSC08766,1.25e5,2.64e5,,9549,11008,inactive
eIF3d2,DRSC15651,1.66e5,92448,,7117,3665,inactive
CG32808,DRSC17689,5.22e5,2.16e5,,26833,4640,inactive
CG17270,DRSC15209,1.47e5,81013,,5917,3370,inactive
CG7182,DRSC10780,61296,1.29e5,,3047,4758,inactive
PGRP-SC1b,DRSC07215,66497,36163,,2899,1544,inactive
CG13361,DRSC17896,96881,2.21e5,,4115,8708,inactive
CG5781,DRSC02893,97243,45136,,2601,3936,inactive
nAChRalpha4,DRSC11925,2.77e5,,,5058,,inactive
nAChRalpha4,DRSC11929,4.22e5,,,8443,,inactive
